Results are given in words; binding and its absence hold for the method and conditions named. In cells and extracts the contact can be indirect. Some entries that bind do so weakly or less than the wild type.
Columns and labels:
[1] = target: Hypoxia-inducible factor-1 alpha (HIF-1α) (human (endogenous in A549)) (UniProt Q16665); test: proximity ligation; Duolink in situ PLA on fixed, permeabilised A549 cells with anti-PKM2 and anti-HIF-1α antibodies; AC020978-knockdown, AC020978-overexpressing and control groups
[2] = target: Hypoxia-inducible factor-1 alpha (HIF-1α) (human (endogenous in A549)) (UniProt Q16665); test: co-IP; reciprocal endogenous co-IP; AC020978-knockdown, AC020978-overexpressing and control groups; which protein was precipitated is not given

Protein sequences, listed by entry. Tags and fused reporters are not part of them.
UniProt Q16665: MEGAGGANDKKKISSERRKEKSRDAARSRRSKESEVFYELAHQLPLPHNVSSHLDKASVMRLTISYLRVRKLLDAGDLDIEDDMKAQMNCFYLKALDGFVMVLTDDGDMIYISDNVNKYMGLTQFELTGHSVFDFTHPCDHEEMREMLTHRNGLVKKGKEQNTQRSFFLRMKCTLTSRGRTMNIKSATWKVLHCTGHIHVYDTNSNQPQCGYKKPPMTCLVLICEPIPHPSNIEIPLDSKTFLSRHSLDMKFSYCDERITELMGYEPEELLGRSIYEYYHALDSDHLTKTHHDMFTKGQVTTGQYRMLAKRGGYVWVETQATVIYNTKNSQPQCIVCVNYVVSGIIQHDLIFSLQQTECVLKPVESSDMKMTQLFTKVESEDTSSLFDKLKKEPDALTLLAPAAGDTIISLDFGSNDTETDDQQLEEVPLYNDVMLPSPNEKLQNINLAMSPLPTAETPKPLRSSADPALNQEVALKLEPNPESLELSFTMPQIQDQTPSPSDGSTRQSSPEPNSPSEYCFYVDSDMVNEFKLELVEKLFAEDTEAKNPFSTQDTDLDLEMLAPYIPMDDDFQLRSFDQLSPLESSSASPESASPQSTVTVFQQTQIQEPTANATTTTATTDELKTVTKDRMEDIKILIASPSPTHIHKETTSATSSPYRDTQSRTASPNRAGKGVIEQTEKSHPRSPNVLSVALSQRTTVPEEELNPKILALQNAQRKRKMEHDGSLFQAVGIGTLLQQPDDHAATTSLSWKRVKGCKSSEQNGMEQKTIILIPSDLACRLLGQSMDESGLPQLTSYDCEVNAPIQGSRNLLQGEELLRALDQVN
UniProt P14618: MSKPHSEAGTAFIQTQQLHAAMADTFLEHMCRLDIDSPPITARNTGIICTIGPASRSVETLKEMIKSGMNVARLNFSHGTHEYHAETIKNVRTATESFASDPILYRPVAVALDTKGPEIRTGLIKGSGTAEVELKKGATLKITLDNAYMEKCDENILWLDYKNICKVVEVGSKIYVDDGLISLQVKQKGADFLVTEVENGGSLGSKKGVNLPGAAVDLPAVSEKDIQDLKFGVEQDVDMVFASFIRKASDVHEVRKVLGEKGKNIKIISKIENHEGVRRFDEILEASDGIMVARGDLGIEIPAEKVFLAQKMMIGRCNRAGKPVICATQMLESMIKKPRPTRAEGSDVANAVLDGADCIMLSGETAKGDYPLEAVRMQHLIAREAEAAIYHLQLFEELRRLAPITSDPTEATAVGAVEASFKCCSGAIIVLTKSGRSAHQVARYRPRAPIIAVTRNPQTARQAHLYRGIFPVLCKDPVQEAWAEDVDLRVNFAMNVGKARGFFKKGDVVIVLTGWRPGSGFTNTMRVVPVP

Pyruvate kinase isozymes M2 (PKM2) (from UniProt P14618 1-531)
binding [1]: binds | binding [2]: binds
